Patent publication EP0838474B1, “PEPTIDE THAT INHIBITS BLOOD TRIGLYCERIDE LEVEL RISE AND BLOOD TRIGLYCERIDE LEVEL RISE INHIBITOR CONTAINING SAID PEPTIDE AS ACTIVE INGREDIENT” (MG PHARMA INC., priority 1995, dated 1997)
At least one peptide structure holds a part that was inferred or is arguable (an end, a ring closure or a residue). Residues, ends and D or L forms follow the SMILES beside them.

System: TG level in blood
Test: Serum TG elevation inhibiting action at the time of in vivo lipid loading (olive oil)
Set-up: species or system albino mice
Experimental: Serum TG elevation inhibiting action at the time of in vivo lipid loading was examined on the three peptides of the invention inhibiting elevations of TG levels in blood (i.e., the peptide having the amino acid sequence of SEQ ID NO: 1 and the peptides Val-Thr-Leu and Val-Tyr-Pro synthesized by the method described in Example 4). Healthy albino mice (5-10 weeks old; body weight: about 20-30 g) were used in this experiment. To each mouse, 250 mg of olive oil and an aqueous solution of the above peptide were administered orally. Three hours thereafter, blood was collected under anesthesia with Nembutal. After separation of the blood, the TG level in blood was determined.

For CC(C)[C@H](N)C(=O)N[C@@H](Cc1ccc(O)cc1)C(=O)N1CCC[C@H]1C(=O)O [Val-Tyr-Pro] (H-Val-Tyr-Pro-OH), the “ID^50: Dose (mg/mouse) exhibiting 50% inhibition” value (oral, with 250 mg olive oil, blood TG after 3 hours) was 0.34 mg/mouse and the “Specific Activity” value (relative to the proteolysate (= 1)) was 82.
